Reference: article PMC3634024
No constants are given. Whether binding was seen depends on the method and setting. In cells and extracts the contact can be indirect. Some binding calls cover weakened binding; strength is not graded here.

Chains of the proteins cited; added tags and fusions are not shown.
UniProt Q12929: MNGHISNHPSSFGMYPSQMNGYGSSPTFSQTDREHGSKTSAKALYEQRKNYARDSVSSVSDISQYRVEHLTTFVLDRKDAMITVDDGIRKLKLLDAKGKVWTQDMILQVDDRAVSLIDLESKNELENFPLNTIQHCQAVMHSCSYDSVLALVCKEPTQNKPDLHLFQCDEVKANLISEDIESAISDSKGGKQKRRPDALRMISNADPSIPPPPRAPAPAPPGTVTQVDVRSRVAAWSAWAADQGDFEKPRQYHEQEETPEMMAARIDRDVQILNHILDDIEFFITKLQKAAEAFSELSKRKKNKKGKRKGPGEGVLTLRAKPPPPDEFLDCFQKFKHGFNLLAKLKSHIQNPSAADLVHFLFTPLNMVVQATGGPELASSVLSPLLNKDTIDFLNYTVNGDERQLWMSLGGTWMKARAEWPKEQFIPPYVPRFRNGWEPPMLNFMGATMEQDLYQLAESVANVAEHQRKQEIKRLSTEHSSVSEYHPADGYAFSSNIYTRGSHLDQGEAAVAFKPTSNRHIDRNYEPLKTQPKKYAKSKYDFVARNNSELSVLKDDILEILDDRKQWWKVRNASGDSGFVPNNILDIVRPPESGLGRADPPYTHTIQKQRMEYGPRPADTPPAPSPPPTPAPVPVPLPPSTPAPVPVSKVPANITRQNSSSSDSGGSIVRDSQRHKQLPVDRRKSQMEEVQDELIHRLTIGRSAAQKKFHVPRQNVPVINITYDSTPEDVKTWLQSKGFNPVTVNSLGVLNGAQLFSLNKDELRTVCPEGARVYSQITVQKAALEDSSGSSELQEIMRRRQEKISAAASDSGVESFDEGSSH

B1: Vav2 (protein, UniProt P52735 1-878)
chain: MEQWRQCGRWLIDCKVLPPNHRVVWPSAVVFDLAQALRDGVLLCQLLHNLSPGSIDLKDINFRPQMSQFLCLKNIRTFLKVCHDKFGLRNSELFDPFDLFDVRDFGKVISAVSRLSLHSIAQNKGIRPFPSEETTENDDDVYRSLEELADEHDLGEDIYDCVPCEDGGDDIYEDIIKVEVQQPMIRYMQKMGMTEDDKRNCCLLEIQETEAKYYRTLEDIEKNYMSPLRLVLSPADMAAVFINLEDLIKVHHSFLRAIDVSVMVGGSTLAKVFLDFKERLLIYGEYCSHMEHAQNTLNQLLASREDFRQKVEECTLKVQDGKFKLQDLLVVPMQRVLKYHLLLKELLSHSAERPERQQLKEALEAMQDLAMYINEVKRDKETLRKISEFQSSIENLQVKLEEFGRPKIDGELKVRSIVNHTKQDRYLFLFDKVVIVCKRKGYSYELKEIIELLFHKMTDDPMNNKDVKKSHGKMWSYGFYLIHLQGKQGFQFFCKTEDMKRKWMEQFEMAMSNIKPDKANANHHSFQMYTFDKTTNCKACKMFLRGTFYQGYMCTKCGVGAHKECLEVIPPCKFTSPADLDASGAGPGPKMVAMQNYHGNPAPPGKPVLTFQTGDVLELLRGDPESPWWEGRLVQTRKSGYFPSSSVKPCPVDGRPPISRPPSREIDYTAYPWFAGNMERQQTDNLLKSHASGTYLIRERPAEAERFAISIKFNDEVKHIKVVEKDNWIHITEAKKFDSLLELVEYYQCHSLKESFKQLDTTLKYPYKSRERSASRASSRSPASCASYNFSFLSPQGLSFASQGPSAPFWSVFTPRVIGTAVARYNFAARDMRELSLREGDVVRIYSRIGGDQGWWKGETNGRIGWFPSTYVEEEGIQ

Legend:
[1] = target: T1, Insulin receptor substrate 4 (human (endogenous in HEK 293T)) (UniProt O14654); experiment: co-IP; endogenous proteins; endogenous IRS4 immunoprecipitated from HEK293T cells stimulated with 20 ng/ml FGF2 for 15 min, without inhibitor or after 30 min dasatinib; Western blot
T1 sequence: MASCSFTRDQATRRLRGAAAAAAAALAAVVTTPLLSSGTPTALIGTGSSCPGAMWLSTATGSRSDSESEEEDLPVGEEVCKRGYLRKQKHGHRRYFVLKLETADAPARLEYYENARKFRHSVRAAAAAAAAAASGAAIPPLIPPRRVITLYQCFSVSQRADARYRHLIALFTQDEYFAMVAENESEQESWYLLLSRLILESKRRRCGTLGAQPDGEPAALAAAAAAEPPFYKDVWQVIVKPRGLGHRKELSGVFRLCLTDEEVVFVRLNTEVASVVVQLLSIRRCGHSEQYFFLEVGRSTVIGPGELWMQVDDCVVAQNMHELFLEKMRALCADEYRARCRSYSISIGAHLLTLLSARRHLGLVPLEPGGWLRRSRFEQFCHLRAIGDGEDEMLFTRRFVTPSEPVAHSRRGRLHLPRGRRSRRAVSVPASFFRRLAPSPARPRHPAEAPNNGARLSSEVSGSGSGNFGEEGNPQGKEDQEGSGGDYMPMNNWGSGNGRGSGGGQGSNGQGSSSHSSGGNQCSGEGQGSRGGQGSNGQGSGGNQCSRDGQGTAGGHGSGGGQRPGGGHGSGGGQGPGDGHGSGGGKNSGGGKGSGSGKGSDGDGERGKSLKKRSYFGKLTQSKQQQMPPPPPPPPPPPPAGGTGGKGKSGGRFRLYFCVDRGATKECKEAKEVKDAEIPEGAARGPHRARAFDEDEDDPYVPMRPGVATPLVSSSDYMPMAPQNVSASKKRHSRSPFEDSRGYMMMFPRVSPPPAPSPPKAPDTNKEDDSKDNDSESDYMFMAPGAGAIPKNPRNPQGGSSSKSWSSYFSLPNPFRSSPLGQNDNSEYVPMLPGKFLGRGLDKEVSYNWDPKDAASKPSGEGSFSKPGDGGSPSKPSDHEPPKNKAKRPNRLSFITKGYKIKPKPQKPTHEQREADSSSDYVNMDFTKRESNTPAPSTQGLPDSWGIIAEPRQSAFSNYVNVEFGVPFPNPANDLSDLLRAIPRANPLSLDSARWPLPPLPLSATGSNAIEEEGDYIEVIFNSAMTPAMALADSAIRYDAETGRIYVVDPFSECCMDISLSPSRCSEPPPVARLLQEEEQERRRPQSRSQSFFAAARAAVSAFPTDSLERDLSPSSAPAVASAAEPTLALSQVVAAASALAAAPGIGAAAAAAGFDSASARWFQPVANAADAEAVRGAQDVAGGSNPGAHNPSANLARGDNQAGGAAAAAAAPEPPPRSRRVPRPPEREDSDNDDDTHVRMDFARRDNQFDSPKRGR

[2] = target: T1, Insulin receptor substrate 4 (human (endogenous in HEK 293T)); experiment: condition: only cells in which the FGF receptor is not active (no FGF2, or SU5402 before FGF2); co-IP; endogenous proteins; endogenous IRS4 immunoprecipitated from HEK293T cells in which the FGF receptor was not active (no FGF2, or 30 min SU5402 before FGF2); Western blot
Myc-Eps8 (human) = Myc-Eps8 (human) (UniProt Q12929); experiment: co-IP; anti-Myc (9E10) on Protein G Dynabeads, whole cell lysate mixed at 4°C for 30 min; HEK 293T cells transfected with Myc-Eps8, 20 ng/ml FGF2 for 15 min; Western blot of endogenous partners; in Figure 6A also without FGF2 and after 30 min pre-treatment with SU5402 or dasatinib

Molecule | binding [1] | binding [2] | binding (Myc-Eps8 (human))
Eps8 (endogenous) (from UniProt Q12929 1-822) | binds | no binding | 
B1 |  |  | binds
